Where a name gives a salt, the structure may show the parent alone.
Tested on: mice
Settings: mouse, in vivo, po, 50 mg/kg

`NCCCC(O)(P(=O)(O)O)P(=O)(O)O` [alendronate trometamine, alendronate trometamine salt] was tested, and the “onset of apparent toxic symptoms” value was “did not cause the onset of apparent toxic symptoms”.

— US6410782B1, “Diphosphonic acid salts for the treatment of osteoporosis” (Geange Ltd., priority 1997, dated 2002)
